Laboratory results taken from PubChem BioAssay AID652054 (National Center for Advancing Translational Sciences (NCATS), 2013).
In all, about 360,000 compounds went through this assay and about 9,100 (2.5%) were called active. Inconclusive results, whose numbers are uncertain, are shown with a selection of clear calls. No stated cut-off is given here; in the data, active means max response below about -50%; inconclusive means no clear call, values can overlap the other calls; inactive means above that.

Sequences of proteins named here, by UniProt entry; tags and fusion partners are left off.
UniProt P35462, whole entry, looked up: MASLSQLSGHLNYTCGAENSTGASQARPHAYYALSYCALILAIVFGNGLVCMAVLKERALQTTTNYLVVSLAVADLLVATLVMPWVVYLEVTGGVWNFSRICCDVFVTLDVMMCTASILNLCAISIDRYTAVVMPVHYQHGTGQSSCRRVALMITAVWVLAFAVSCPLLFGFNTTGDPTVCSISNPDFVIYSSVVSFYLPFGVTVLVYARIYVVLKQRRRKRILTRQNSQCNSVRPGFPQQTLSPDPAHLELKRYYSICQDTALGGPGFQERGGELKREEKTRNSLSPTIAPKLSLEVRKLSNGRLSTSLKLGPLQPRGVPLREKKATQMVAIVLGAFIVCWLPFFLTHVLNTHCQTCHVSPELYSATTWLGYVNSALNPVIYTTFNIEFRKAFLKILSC

Molecular target: D(3) dopamine receptor (Homo sapiens) (UniProt P35462)
Experiment: qHTS of D3 Dopamine Receptor Antagonist: qHTS
Details: D3R cells, DiscoveRx beta-arrestin luminescence, antagonist mode; stronger effect = lower value
In short: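 Cells plated overnight at 1500 cells/well, then exposed to library compounds with dopamine controls for 90 minutes at 37 degrees C. DiscoveRx reagent added for 30–60 minutes at room temperature; luminescence read, quantitative HTS format.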
On the % scale 0 is the no-effect control and ±100 the full control effect.

| SMILES | max response, negative = inhibition |
| --- | --- |
| COc1ccccc1NC(=O)CCCCCN1C(=O)c2cccc3cccc(c23)C1=O | inconclusive: -30.1% |
| O=C(Nc1cc(S(=O)(=O)N2CCOCC2)ccc1Cl)c1cc([N+](=O)[O-])ccc1Cl | inconclusive: -43.7% |
| Cc1ccccc1-n1c(SCC(=O)NCC2CCCO2)nc2c([nH]c3ccccc32)c1=O (stereo unspecified) | active: -82.4% |
| CC(CC(=O)Nc1ccc(Cl)c([N+](=O)[O-])c1)c1ccccc1 (stereo unspecified) | active: -57.4% |
| CCCc1nc2ccccc2n1CCOc1ccccc1 | active: -62.2% |
| Clc1cccc(OCCCN2CCCC2)c1Cl | active: -98.8% |
| Cc1ccc(CN2CC(N3CCCCC3)CS2(=O)=O)cc1 (stereo unspecified) | inconclusive: -39.1% |
| COc1ccc(CCCN2CCC(CN3C(=S)NC[C@@H]3Cc3ccccc3)CC2)cc1OC | active: -54.7% |
| O=C(NCCC1CCCCN1S(=O)(=O)c1ccccc1)C(=O)NCc1ccncc1 (stereo unspecified) | inconclusive: -34.5% |
| O=c1[nH]n(-c2ccccc2)c(=O)c(Cl)c1Cl | inconclusive: -47.5% |
| OCc1nnc2c3ccccc3c(-c3ccccc3)nn12 | inconclusive: -35.4% |
| CCOc1ccccc1OCCOCCN1CCN(Cc2ccccc2)CC1 | inconclusive: -45.4% |
| CCOc1ccc(-n2c(SCC(=O)Nc3ccc(OC)cc3)nc3c(c2=O)SCC3)cc1 | inconclusive: -45% |
| Cc1ccc(CN2CCSc3ccc(C(=O)NCc4cccnc4)cc32)cc1 | inconclusive: -35.4% |
| CCc1ccccc1NC(=O)CN(c1cccc(OC)c1)S(C)(=O)=O | inconclusive: -42.4% |
| Cc1sc2ncn(CC(=O)NCCCN3CC(C)CC(C)C3)c(=O)c2c1S(=O)(=O)N1CC(C)CC(C)C1 (stereo unspecified) | active: -90.4% |
| Cc1cccc(NC(=O)CNC(=O)CSc2nnc(C(F)(F)F)n2C)c1C | inconclusive: -35.6% |
| COC(=O)c1ccc(C(=O)OC)c(NC(=O)COC(=O)CCOc2ccc(C)cc2)c1 | active: -62.3% |
| COc1ccc(CN2CCCN(S(=O)(=O)c3ccc(Br)cc3)CC2)cc1 | inconclusive: -47.5% |
| COC(=O)[C@@]1(Sc2ccc(C)cc2)CC(=O)N(C(=O)CCc2ccccc2)[C@@H]1c1ccccc1 | inactive: 10% |
| C=Cn1c(N2CCOCC2)nc2c1c(=O)[nH]c(=O)n2C | inconclusive: -43.5% |
| O=C(Nc1ccc(N2CCN(C(=O)c3ccccc3)CC2)cc1)c1ccc([N+](=O)[O-])o1 | active: -56.2% |

| SMILES | max response, negative = inhibition |
| --- | --- |
| O=C(Cc1ccccc1)Nc1ccc(SC(F)F)cc1 | inactive: 9.49% |
| C=CCNc1nnc(SC2CC(=O)N(c3ccc(OCCC)cc3)C2=O)s1 (stereo unspecified) | inconclusive: -31.4% |
| Clc1cccc(Cc2c(-c3cccc(Cl)c3)nc3c4ccccc4ccn23)c1 | inconclusive: -40.6% |
| CCCn1nnnc1NC(=O)c1cccs1 | inconclusive: -33.3% |
| Cc1ccc(S(=O)(=O)N2CCC(=O)N(C(COCc3ccc(Cl)cc3)Cc3ccccc3)CC2)cc1 (stereo unspecified) | inactive: 13.9% |
| O=C(Nc1c(C(=O)N2CCOCC2)oc2ccccc12)c1ccccc1Cl | inconclusive: -42.8% |
| CN1C(=O)/C(=C/c2cc(C(C)(C)C)c(O)c(C(C)(C)C)c2)NC1=S | active: -58.3% |
| COc1ccc(OC2(C)CCN(Cc3ccc(-c4ccccc4)o3)C2)cc1 (stereo unspecified) | active: -128% |
| Cc1ccccc1-n1c(C)cc(/C=N/NC(=O)c2ccc(CN3CCOCC3)cc2)c1C | inconclusive: -37.5% |
| CN(c1ccccc1)S(=O)(=O)c1ccc(C(=O)NCc2ccccc2CN2CCCC2)cc1 | inconclusive: -33.8% |
| Cc1cccc2c3c([nH]c12)CCN(C)C3 | inconclusive: -34.8% |
| O=C(COC(=O)c1cc[n+]([O-])cc1)Nc1ccc(SC(F)F)cc1 | inactive: -5.38% |
| Cc1ccc(OCCCCN2CCC(C)CC2)cc1 | inconclusive: -43.9% |
| O=C(Nc1ccc(S(=O)(=O)N2CCCC2)cc1)c1ccc(CN2CCc3ccccc3C2)cc1 | inconclusive: -48.6% |
| Cc1ccc(-c2c[n+](CC(=O)N3c4ccccc4Sc4ccccc43)c3n2CCC3)cc1 | inconclusive: -35.7% |
| COC(=O)[C@@]12C[C@@H](CC(=O)NCCC(C)C)C(=O)N(Cc3cccc4ccccc34)C1=CCC(C)(C)C2 | inconclusive: -41.1% |
| CCCn1c(NC(=O)C2COc3ccccc3O2)nc2ccccc21 (stereo unspecified) | inconclusive: -45.3% |
| CC(=O)NS(=O)(=O)c1ccc(N=c2ssc3c2-c2cc(C)c(C)cc2NC3(C)C)cc1 | inconclusive: -40.2% |
| CC(=O)c1sc2nc(-c3cccs3)ccc2c1N | inconclusive: -36.5% |
| Nc1c(C(=O)O)ccc2c1C(=O)c1ccccc1C2=O | inconclusive: -36.9% |
| CCCN(CC1CC1)c1cc2c(c3c1ccn3C)C1CCC2O1 (stereo unspecified) | inconclusive: -44.2% |
| N#Cc1cnc(Nc2nc3ccccc3o2)nc1-c1ccccc1 | inconclusive: -36% |

| SMILES | max response, negative = inhibition |
| --- | --- |
| Cc1cc(OCC(=O)Nc2ncn[nH]2)ccc1Cl | inconclusive: -47.1% |
| CCCCNCCS(=O)(=O)NCc1ccccc1OC | inconclusive: -39% |
| CC(C)(CNC(=O)c1ccccc1NS(C)(=O)=O)N1CCCCC1 | active: -58.1% |
| COC(=O)[C@@]1(Cc2ccc(F)cc2)[C@H]2c3cc(C(=O)N4CCCC4)n(Cc4cc(C)n(C)n4)c3C[C@H]2CN1C(=O)c1ccccc1 | inconclusive: -35.5% |
| CC(C)CNC(=O)c1coc(=O)c(Br)c1 | inconclusive: -35.9% |
| C[C@H](CO)N1C[C@H](C)[C@@H](CN(C)Cc2ccncc2)OCCCC[C@H](C)Oc2ccc(NC(=O)CCCN(C)C)cc2C1=O | inactive: 0% |
| CCC(=O)Nc1cccc(NC(=O)c2ccc(C)cc2Cl)c1 | inactive: 1.89% |
| CN1CCN(CCCCOc2ccccc2C=O)CC1 | inconclusive: -42% |
| CC(=O)c1ccc(NC(=O)COC(=O)c2ccccc2Nc2ccccc2)cc1 | active: -51.1% |
| CCC(C)c1ccc(S(=O)(=O)Nc2cccnc2)cc1 (stereo unspecified) | inactive: 9.22% |
| CC(=O)N1c2ccc(S(=O)(=O)N3CCC(C(=O)NCc4ccc(C)cc4)CC3)cc2CC1C (stereo unspecified) | inactive: 19.7% |
| COc1ccccc1-n1c(SCC(=O)c2ccc(O)cc2O)nc2cc([N+](=O)[O-])ccc21 | inconclusive: -48.3% |
| Cc1ccc(S(=O)(=O)N2CCC(=O)N([C@H](COC(=O)Nc3ccccc3)Cc3ccccc3)CC2)cc1 | inconclusive: -48% |
| CC1=NN(c2ccccc2)C(=O)C1C(=S)SC1CC(=O)NC1=O (stereo unspecified) | inconclusive: -38.8% |
| CCc1nc2ccc(C(=O)NCc3ccccc3OC)cn2c1N(CC)Cc1cccc(Br)c1 | inconclusive: -30.4% |
| CCN1CCN(C(=O)C2=C(C(=O)O)CCCC2)CC1 | inconclusive: -30.1% |
| OCC1(CCc2ccccc2)CCN(Cc2ccccc2Cl)CC1 | inconclusive: -32.2% |
| O=C1Nc2ccc(C(=O)O)c(O)c2C1=O | inconclusive: -31.8% |
| Cc1ccc(CNC(=O)[C@@H](NC(=O)C2CCN(C(=O)[C@@H]3CCCN3)CC2)C(C)C)cc1 | inconclusive: -35.9% |
| COc1ccc(/C=C/C(=O)c2ccccc2)cc1COc1ccc(F)cc1 | inactive: 2.43% |
| CCN(CC)C(=O)Oc1ccc(Br)cc1C(=O)Nc1ccc(F)cc1F | inactive: -3.57% |
| CCN(CC)CCOc1ccc2c(c1)C(=NO)c1cc(OCCN(CC)CC)ccc1-2 | inconclusive: -34.2% |

| SMILES | max response, negative = inhibition |
| --- | --- |
| O=C(O)c1cccc(C(=O)Nc2cccc(NC(=O)C3CCCO3)c2)c1 (stereo unspecified) | inconclusive: -48.9% |
| CCOc1ccccc1-c1nc(CN2CCCN(C(=O)c3ccco3)CC2)c(C)o1 | active: -78.8% |
| O=C(CNC1CCN(Cc2ccccc2)CC1)Nc1ccc(S(=O)(=O)N2CCCCC2)cc1 | active: -81.7% |
| CCN(CC)c1ccc(N2C(=O)/C(=C\c3cccnc3)SC2=S)cc1 | inconclusive: -33.9% |
| Cc1ccc(Oc2nc(CN3CCOCC3)nc3sc4c(c23)CCC(C)C4)cc1 (stereo unspecified) | inactive: 5.87% |
| CCOC(=O)C1CCN(Cc2cnc(Oc3ccc(N)cc3)s2)CC1 | inactive: -13% |
| Cc1ccc(CN2CCC(c3nc4ccc(Cl)cc4[nH]3)CC2)cc1 | active: -93.1% |
| CC(C)(C)n1nnnc1C(c1ccccc1)N1CCN(c2c(Cl)cncc2Cl)CC1 (stereo unspecified) | inactive: 23.4% |
| Cc1ccc(C)c(C(=O)CCC(=O)N2CCN(c3ncccn3)CC2)c1 | inconclusive: -35.9% |
| CCN(CC)CCNC(=O)C1c2ccccc2C(=O)N(CCOC)C1c1ccc(F)cc1 (stereo unspecified) | active: -61.6% |
| c1ccc(C2CCC(N3CCN(c4ccccc4)CC3)CC2)cc1 (stereo unspecified) | active: -52.2% |
| Cc1[nH]nc2c1C(c1ccc(-c3ccc(Cl)cc3)o1)C(C#N)=C(N)O2 (stereo unspecified) | inactive: -2.12% |
| Cc1cc2oc(=O)cc(CN3CCC(C)CC3)c2cc1Cl | active: -51.5% |
| O=C(NC1CCCCC1)N(CCN1CCCC1)Cc1cc2cc3c(cc2[nH]c1=O)OCCO3 | inconclusive: -36.5% |
| CN(C(=O)c1coc(=O)c2ccccc12)c1ccccc1Cl | inconclusive: -32.2% |
| CCOc1ccccc1N/C(=C(/C(Cl)=C(Cl)Cl)[N+](=O)[O-])n1cncn1 | inconclusive: -37.3% |
| O=C(O)C1CCCN1S(=O)(=O)c1ccc2[nH]c(=O)c(=O)[nH]c2c1 (stereo unspecified) | inconclusive: -46% |
| COC(=O)C1=C(C)N(c2cccc3ccccc23)C(=O)C1 | inconclusive: -49.5% |
| c1ccc(-c2oc3ncnc(NCCCN4CCOCC4)c3c2-c2ccccc2)cc1 | active: -64.8% |
| CC(/C=C/c1ccccc1)=N\NC(=O)c1ccc(Br)cc1 | inactive: 9.73% |

Given comma-delimited: part of the list above
SMILES,"max response, negative = inhibition"
CCOc1ccc(-n2c(SCC(=O)Nc3ccc(OC)cc3)nc3c(c2=O)SCC3)cc1,inconclusive: -45%
Cc1ccc(-c2c[n+](CC(=O)N3c4ccccc4Sc4ccccc43)c3n2CCC3)cc1,inconclusive: -35.7%
CC1=NN(c2ccccc2)C(=O)C1C(=S)SC1CC(=O)NC1=O (stereo unspecified),inconclusive: -38.8%
Cc1ccc(C)c(C(=O)CCC(=O)N2CCN(c3ncccn3)CC2)c1,inconclusive: -35.9%
